Data: the supplement of paper PMC10849652
Some of the results follow. Residues, ends and D or L forms follow the SMILES beside them. *: point of attachment. Cbz = O=C(OCc1ccccc1)*

By UniProt entry, the sequences of proteins in these tests, tags left out. Where a name states a change or a piece, a line headed by the entry shows the natural chain unless it says otherwise.
UniProt Q05086: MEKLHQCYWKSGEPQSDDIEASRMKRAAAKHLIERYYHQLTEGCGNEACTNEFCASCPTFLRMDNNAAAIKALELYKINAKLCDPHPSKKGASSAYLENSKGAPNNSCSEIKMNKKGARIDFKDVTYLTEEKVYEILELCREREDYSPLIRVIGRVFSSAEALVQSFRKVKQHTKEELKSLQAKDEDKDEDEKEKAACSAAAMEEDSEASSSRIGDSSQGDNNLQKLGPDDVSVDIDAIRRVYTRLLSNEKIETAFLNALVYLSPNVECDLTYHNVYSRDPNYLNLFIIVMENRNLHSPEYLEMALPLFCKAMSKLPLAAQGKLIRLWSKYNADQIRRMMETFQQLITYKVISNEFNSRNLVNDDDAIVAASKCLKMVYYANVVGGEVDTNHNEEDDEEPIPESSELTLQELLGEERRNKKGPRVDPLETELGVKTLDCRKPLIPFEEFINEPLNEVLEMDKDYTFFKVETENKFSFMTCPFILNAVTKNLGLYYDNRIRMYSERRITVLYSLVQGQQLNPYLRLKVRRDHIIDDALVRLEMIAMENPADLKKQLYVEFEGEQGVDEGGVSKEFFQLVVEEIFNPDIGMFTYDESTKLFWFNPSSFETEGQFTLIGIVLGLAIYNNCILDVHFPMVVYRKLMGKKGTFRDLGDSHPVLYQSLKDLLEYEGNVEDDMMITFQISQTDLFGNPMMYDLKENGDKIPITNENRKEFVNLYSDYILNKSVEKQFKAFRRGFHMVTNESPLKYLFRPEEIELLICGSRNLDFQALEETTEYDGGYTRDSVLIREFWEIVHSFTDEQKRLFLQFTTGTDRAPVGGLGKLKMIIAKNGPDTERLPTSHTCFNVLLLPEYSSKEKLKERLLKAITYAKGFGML
UniProt Q13454: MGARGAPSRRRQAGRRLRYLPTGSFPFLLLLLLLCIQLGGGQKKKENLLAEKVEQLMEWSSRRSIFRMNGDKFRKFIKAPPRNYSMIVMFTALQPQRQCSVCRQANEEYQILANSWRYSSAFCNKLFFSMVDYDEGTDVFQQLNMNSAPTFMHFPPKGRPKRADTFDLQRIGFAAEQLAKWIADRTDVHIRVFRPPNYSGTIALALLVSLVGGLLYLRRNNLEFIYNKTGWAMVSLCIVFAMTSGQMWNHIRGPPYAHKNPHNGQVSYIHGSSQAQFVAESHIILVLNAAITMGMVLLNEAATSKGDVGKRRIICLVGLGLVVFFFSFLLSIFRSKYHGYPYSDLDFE
UniProt P51965: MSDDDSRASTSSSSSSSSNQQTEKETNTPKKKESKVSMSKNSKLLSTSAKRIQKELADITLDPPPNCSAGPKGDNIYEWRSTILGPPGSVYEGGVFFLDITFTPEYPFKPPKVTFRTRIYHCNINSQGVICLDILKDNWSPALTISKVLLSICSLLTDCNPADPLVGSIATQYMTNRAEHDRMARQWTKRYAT
UniProt Q8TBC4: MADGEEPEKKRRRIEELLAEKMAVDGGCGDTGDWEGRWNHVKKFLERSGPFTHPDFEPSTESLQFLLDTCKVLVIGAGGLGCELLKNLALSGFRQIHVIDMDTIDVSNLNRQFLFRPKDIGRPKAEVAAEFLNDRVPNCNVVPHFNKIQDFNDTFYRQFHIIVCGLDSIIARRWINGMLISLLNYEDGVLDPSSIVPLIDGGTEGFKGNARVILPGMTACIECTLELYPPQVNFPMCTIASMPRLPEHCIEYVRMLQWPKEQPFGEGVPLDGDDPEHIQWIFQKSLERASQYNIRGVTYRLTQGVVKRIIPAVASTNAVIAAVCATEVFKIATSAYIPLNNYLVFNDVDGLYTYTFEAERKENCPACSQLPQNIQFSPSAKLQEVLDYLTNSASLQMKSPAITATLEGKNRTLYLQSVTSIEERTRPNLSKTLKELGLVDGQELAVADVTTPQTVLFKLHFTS
UniProt Q9Y5U2: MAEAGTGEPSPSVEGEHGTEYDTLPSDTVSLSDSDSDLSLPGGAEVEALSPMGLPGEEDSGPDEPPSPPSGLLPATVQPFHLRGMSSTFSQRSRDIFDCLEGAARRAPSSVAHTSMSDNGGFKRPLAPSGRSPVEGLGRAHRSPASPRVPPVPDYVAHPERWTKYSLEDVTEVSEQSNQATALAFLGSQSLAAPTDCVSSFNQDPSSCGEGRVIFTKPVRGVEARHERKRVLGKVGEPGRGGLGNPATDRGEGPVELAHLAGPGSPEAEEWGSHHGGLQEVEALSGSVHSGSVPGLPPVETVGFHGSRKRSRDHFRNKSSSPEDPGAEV
UniProt Q16222: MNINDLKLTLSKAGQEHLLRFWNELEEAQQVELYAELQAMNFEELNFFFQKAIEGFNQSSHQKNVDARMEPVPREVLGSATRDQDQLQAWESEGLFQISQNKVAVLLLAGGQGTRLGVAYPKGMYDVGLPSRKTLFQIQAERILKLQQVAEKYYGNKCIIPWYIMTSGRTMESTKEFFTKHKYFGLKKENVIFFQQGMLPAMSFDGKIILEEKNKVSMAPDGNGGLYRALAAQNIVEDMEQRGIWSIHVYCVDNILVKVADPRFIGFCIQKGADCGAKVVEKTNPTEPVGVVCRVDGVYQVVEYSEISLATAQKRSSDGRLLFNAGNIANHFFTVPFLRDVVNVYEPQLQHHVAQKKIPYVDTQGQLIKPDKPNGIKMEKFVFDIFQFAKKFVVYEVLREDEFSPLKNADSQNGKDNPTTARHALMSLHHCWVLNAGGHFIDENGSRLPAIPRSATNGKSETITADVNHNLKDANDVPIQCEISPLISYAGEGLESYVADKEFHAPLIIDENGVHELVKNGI
UniProt Q9H4B7, whole entry, looked up: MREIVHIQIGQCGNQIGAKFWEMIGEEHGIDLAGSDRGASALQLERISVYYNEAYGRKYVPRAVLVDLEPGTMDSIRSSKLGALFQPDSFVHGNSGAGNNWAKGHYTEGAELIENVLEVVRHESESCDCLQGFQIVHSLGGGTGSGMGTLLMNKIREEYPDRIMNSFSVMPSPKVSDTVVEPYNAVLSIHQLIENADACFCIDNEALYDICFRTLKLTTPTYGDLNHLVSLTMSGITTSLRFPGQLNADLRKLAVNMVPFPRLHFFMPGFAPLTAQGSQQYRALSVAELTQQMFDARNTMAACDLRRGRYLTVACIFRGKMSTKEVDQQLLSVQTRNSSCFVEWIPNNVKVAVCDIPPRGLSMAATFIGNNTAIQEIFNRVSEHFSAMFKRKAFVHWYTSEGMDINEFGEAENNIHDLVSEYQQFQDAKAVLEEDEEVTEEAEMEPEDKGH
UniProt Q8NBS9: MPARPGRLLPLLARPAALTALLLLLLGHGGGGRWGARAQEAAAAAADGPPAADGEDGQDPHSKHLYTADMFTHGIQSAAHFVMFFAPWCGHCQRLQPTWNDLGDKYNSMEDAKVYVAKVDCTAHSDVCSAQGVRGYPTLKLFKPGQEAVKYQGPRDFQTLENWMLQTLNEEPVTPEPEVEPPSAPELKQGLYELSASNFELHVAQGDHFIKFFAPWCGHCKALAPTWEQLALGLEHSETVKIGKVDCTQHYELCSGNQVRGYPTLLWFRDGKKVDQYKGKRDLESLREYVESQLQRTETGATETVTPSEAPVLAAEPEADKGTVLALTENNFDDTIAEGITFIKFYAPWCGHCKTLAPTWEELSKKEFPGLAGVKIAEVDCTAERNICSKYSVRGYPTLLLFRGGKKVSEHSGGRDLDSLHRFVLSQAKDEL
UniProt O15042: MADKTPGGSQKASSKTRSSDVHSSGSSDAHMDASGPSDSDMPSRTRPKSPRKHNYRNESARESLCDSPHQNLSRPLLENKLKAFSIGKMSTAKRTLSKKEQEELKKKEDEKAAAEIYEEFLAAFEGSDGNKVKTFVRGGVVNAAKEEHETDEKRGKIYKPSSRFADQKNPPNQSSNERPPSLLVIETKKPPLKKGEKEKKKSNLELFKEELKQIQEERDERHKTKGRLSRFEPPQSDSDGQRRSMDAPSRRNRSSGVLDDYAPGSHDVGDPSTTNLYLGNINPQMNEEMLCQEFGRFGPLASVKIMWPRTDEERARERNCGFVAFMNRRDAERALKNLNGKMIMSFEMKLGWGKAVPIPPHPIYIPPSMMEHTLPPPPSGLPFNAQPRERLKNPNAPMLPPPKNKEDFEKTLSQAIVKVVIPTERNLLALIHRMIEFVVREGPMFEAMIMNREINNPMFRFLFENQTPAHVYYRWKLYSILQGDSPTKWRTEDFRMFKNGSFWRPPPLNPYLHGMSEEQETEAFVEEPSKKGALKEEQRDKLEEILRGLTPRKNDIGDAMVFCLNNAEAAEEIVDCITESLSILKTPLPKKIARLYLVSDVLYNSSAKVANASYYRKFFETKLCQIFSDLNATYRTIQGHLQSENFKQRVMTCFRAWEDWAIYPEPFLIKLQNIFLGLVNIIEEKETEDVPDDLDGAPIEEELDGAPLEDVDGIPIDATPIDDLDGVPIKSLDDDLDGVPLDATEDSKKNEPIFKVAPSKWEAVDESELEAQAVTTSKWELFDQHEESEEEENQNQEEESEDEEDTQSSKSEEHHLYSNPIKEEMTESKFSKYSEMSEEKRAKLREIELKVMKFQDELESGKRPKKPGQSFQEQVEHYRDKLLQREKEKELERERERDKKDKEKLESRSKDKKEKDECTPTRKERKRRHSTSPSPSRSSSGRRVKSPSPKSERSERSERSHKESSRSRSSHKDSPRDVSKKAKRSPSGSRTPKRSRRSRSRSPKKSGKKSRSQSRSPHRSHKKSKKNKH
UniProt P61081: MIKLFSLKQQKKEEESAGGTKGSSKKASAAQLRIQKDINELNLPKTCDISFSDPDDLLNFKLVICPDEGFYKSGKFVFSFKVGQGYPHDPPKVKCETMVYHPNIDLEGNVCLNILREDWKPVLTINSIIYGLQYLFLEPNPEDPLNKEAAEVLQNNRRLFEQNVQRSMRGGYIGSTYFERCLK
UniProt O14530: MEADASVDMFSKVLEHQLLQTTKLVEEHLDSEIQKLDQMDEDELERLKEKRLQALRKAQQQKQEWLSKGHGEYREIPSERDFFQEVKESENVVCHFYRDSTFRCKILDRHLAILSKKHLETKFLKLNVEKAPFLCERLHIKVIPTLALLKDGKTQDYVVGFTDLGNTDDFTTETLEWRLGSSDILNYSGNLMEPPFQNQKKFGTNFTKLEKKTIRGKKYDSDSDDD
UniProt P61088: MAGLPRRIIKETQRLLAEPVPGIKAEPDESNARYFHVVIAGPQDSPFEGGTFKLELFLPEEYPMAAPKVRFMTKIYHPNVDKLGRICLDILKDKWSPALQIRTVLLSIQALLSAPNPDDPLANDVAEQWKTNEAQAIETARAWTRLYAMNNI
UniProt Q9C0C9: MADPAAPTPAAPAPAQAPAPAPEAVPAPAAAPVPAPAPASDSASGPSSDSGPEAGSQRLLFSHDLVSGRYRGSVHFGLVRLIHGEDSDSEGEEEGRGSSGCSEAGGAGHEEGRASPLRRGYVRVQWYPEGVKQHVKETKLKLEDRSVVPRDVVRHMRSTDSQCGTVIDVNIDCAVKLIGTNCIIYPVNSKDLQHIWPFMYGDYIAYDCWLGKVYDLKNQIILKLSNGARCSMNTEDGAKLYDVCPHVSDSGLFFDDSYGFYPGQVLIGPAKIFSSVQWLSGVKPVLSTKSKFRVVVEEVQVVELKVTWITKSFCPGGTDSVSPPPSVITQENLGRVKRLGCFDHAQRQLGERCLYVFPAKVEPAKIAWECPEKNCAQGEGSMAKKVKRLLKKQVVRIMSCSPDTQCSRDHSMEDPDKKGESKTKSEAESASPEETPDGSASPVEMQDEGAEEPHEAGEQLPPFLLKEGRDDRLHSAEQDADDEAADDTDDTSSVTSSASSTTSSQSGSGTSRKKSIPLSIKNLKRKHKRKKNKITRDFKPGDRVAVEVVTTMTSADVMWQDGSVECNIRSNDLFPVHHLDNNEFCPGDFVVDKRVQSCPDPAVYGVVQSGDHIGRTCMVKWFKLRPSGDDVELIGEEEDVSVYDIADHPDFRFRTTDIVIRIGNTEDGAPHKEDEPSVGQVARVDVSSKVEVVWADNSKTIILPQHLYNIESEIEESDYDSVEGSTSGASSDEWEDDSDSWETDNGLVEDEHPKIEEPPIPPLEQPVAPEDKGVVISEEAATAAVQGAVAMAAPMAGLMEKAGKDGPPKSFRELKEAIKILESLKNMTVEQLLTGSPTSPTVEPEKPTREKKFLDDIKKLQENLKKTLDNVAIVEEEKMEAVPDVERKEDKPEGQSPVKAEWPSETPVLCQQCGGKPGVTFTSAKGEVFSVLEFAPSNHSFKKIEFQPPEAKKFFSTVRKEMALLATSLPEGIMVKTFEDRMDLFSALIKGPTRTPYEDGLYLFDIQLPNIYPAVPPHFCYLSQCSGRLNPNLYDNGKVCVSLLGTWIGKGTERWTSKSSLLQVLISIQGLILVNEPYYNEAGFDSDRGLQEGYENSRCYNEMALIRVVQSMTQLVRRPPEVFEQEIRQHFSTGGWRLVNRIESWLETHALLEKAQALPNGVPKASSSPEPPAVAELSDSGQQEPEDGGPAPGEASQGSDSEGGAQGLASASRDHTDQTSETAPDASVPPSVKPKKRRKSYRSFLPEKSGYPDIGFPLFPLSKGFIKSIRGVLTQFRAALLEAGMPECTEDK

Legend:
Assay in all cases: log2 fold change, soluble protein after heating vs DMSO (PISA); higher = thermal stabilisation; K562 cells, 10 uM, 30 min; active = over 0.2 and 3.5 SD of the protein, either way, in both replicates (recomputed)
[1] = compound: C1COCCN1CCN2C3=CC=CC=C3N=C2NC(=O)C4=CC(=CC=C4)[N+](=O)[O-] [IRAK-1-4 Inhibitor I]
Outline: (§1)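 Thermal stability values are relative to control samples and come from duplicates. They are expressed as log2 fold changes. For measurement, K562 cells (2×10^6 cells/mL) received 10 μM compound for 30 min, and aliquots were heated for 3 min over 48°C-58°C, pooled, and extracted at 4°C in PBS with 0.5% NP-40. Soluble protein, the supernatant after 21,000xg for 90 min, was quantified by TMTpro 16plex LC-MS/MS with equalised channel sums.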

[2] = compound: C=CC(=O)N1CCC[C@@H](n2nc(-c3ccc(Oc4ccccc4)cc3)c3c(N)ncnc32)C1 [ibrutinib]
Outline: as §1

[3] = compound: CC(=O)c1cnc2ccc(-c3cc(Cl)c(O)c(Cl)c3)nc2c1N[C@H]1CC[C@H](CN(C)C)CC1
Outline: as §1

[4] = compound: CC(C)(C)Cn1c(N)nc2ccc(-c3[nH]c(C(C)(C)C)nc3-c3ccc(F)cc3)nc21 [ralimetinib]
Outline: as §1

[5] = compound: CC(C)(O)CC(=O)NCCn1ccc2ncnc(Nc3ccc(Oc4cccc(C(F)(F)F)c4)c(Cl)c3)c21
Outline: as §1

[6] = compound: CC(C)C1=C2N=C(C=C(N2N=C1)NCC3=CC=CC=C3)NCCCCCCN
Outline: as §1

[7] = compound: CC(C)C[C@@H](C=O)NC(=O)[C@H](CC(C)C)NC(=O)[C@H](CC(C)C)NC(=O)OCc1ccccc1
Outline: as §1

[8] = compound: CC(C)N(C[C@H]1O[C@@H](n2cnc3c(N)ncnc32)[C@H](O)[C@@H]1O)[C@H]1C[C@@H](CCc2nc3cc(C(C)(C)C)ccc3[nH]2)C1 [pinometostat]
Outline: as §1

[9] = compound: CC1=C(C(CC(=O)N1)C2=CC=C(C=C2)C(F)(F)F)C(=O)NC3=C(C=C4C(=C3)C=NN4)F
Outline: as §1

[10] = compound: CC1=C(C2=C(C=C1)C(=O)C3=CC=CC=C3N2CCCN)C
Outline: as §1

[11] = compound: CC1=C(C=C(C=C1)NC(=O)C2=CC(=CC=C2)C(C)(C)C#N)NC3=CC4=C(C=C3)N=CN(C4=O)C
Outline: as §1

[12] = compound: CC1=C(C=C(C=C1)NC(=O)C2=CC(=CC=C2)N(C)C)NC(=O)C3=CC=C(C=C3)O
Outline: as §1

[13] = compound: CC1=CC=C(C=C1)SC2=C3C=C(SC3=CN=C2)C(=O)N
Outline: as §1

[14] = compound: CC1=NC(=CC=C1)C2=C(N=C(N2)C(C)(C)C)C3=CC4=NC=CN=C4C=C3
Outline: as §1

[15] = compound: CCCCN(Cc1ccc(C(=O)NO)cc1)C(=O)Nc1ccccc1 [Nexturastat A]
Outline: as §1

[16] = compound: CCCS(=O)(=O)Nc1ccc(F)c(C(=O)c2c[nH]c3ncc(-c4ccc(Cl)cc4)cc23)c1F [vemurafenib]
Outline: as §1

[17] = compound: CCCS(=O)(=O)Nc1ccc(F)c(C(=O)c2c[nH]c3ncc(Cl)cc23)c1F
Outline: as §1

[18] = compound: CCCc1cc(C)[nH]c(=O)c1CNC(=O)c1cc(-c2ccnc(N3CCN(C)CC3)c2)cc2c1cnn2C(C)C
Outline: as §1

[19] = compound: CCN(CC)Cc1ccc2cc(COC(=O)Nc3ccc(C(=O)NO)cc3)ccc2c1 [givinostat]
Outline: as §1

[20] = compound: CCN(CCCOc1ccc2c(Nc3cc(CC(=O)Nc4cccc(F)c4)[nH]n3)ncnc2c1)CCOP(=O)(O)O [barasertib]
Outline: as §1

Measured: log2 fold change

UBE3A (UniProt Q05086)
inactive: [1] 0.023 | [2] -0.003 | [3] -0.031 | [4] -0.021 | [5] -0.025 | [6] 0 | [7] 0.002 | [8] -0.005 | [9] 0.002 | [10] -0.011 | [11] -0.004 | [12] 0 | [13] 0.025 | [14] 0.022 | [15] -0.005 | [16] 0.012 | [17] 0.041 | [18] -0.004 | [19] 0.016 | [20] 0.02

TUSC3 isoform 2 (UniProt Q13454)
inactive: [1] -0.026 | [2] 0.084 | [3] 0.035 | [4] 0.026 | [5] -0.01 | [6] -0.056 | [7] 0.118 | [8] 0.143 | [9] 0.05 | [10] 0.001 | [11] -0.04 | [12] 0.05 | [13] -0.026 | [14] 0.013 | [15] 0.137 | [16] 0.009 | [17] -0.005 | [18] 0.032 | [19] 0.042 | [20] -0.015

TUBA3C (UniProt P0DPH7)
inactive: [1] 0.053 | [2] 0.029 | [3] 0.051 | [4] -0.04 | [5] -0.053 | [6] 0.032 | [7] -0.004 | [8] 0.001 | [9] 0.081 | [10] 0.011 | [11] -0.004 | [12] 0.002 | [13] 0.099 | [14] -0.008 | [15] -0.099 | [16] -0.077 | [17] -0.04 | [18] -0.007 | [19] -0.09 | [20] -0.006

UBE2E1 (UniProt P51965)
inactive: [1] 0.019 | [2] 0.005 | [3] -0.047 | [4] 0.14 | [5] -0.118 | [6] -0.176 | [7] -0.242 | [8] -0.024 | [9] -0.124 | [10] 0.175 | [11] 0.032 | [12] -0.263 | [13] 0.057 | [14] 0.039 | [15] -0.169 | [16] -0.054 | [17] 0.031 | [18] 0.046 | [19] 0.089 | [20] 0.059

UBA3 (UniProt Q8TBC4)
inactive: [1] -0.014 | [2] 0.008 | [3] -0.033 | [4] -0.015 | [5] -0.118 | [6] -0.145 | [7] -0.028 | [8] -0.009 | [9] 0.051 | [10] 0.007 | [11] 0.04 | [12] -0.001 | [13] 0.009 | [14] 0.014 | [15] -0.092 | [16] 0.043 | [17] 0.019 | [18] -0.016 | [19] -0.038 | [20] 0.012

TUBGCP3 (UniProt Q96CW5)
inactive: [1] -0.14 | [2] -0.186 | [3] -0.043 | [4] 0.11 | [5] 0.005 | [6] -0.078 | [7] 0.234 | [8] 0.149 | [9] -0.056 | [10] 0.196 | [11] 0.011 | [12] -0.118 | [13] 0.092 | [14] 0.006 | [15] 0.067 | [16] -0.027 | [17] -0.024 | [18] -0.067 | [19] 0.156 | [20] 0.198

UBE2L3 isoform 3 (UniProt P68036)
inactive: [1] 0.032 | [2] -0.003 | [3] 0.05 | [4] -0.03 | [5] 0.043 | [6] 0.074 | [7] 0.005 | [8] -0.085 | [9] -0.008 | [10] -0.032 | [11] -0.01 | [12] -0.001 | [13] -0.002 | [14] 0.041 | [15] -0.052 | [16] 0 | [17] -0.001 | [18] 0.024 | [19] -0.037 | [20] -0.005

TSSC4 (UniProt Q9Y5U2)
inactive: [1] -0.025 | [2] 0.013 | [3] 0.053 | [4] 0.201 | [5] 0.031 | [6] 0.193 | [7] 0.147 | [8] 0.022 | [9] 0.157 | [10] -0.039 | [11] -0.059 | [12] 0.075 | [13] -0.028 | [14] -0.019 | [15] 0.069 | [16] -0.142 | [17] -0.082 | [18] -0.08 | [19] -0.03 | [20] -0.036

UAP1 (UniProt Q16222)
inactive: [1] 0.077 | [2] 0.006 | [3] 0.014 | [4] -0.076 | [5] -0.028 | [6] -0.024 | [7] 0.009 | [8] -0.023 | [9] -0.026 | [10] 0.032 | [11] -0.006 | [12] -0.012 | [13] 0.019 | [14] 0.03 | [15] -0.072 | [16] -0.023 | [17] 0.005 | [18] -0.046 | [19] -0.057 | [20] 0.021

TUBB1 (UniProt Q9H4B7)
inactive: [1] 0.103 | [2] 0.032 | [3] -0.002 | [4] 0.031 | [5] -0.007 | [6] 0.009 | [7] -0.064 | [8] -0.075 | [9] -0.051 | [10] 0.02 | [11] 0.042 | [12] -0.061 | [13] 0 | [14] 0.103 | [15] -0.064 | [16] 0.028 | [17] -0.037 | [18] -0.002 | [19] -0.027 | [20] -0.012

TXNDC5 (UniProt Q8NBS9)
inactive: [1] 0.011 | [2] -0.013 | [3] 0.006 | [4] -0.057 | [5] 0.029 | [6] 0.024 | [7] -0.035 | [8] -0.063 | [9] 0.005 | [10] -0.01 | [11] 0.015 | [12] 0.013 | [13] -0.021 | [14] 0.017 | [15] -0.014 | [16] -0.001 | [17] -0.015 | [18] 0.022 | [19] -0.044 | [20] 0.005

U2SURP (UniProt O15042)
inactive: [1] -0.131 | [2] -0.114 | [3] -0.191 | [4] 0.086 | [5] -0.018 | [6] -0.194 | [7] 0.094 | [8] 0.083 | [9] -0.049 | [10] -0.015 | [11] 0.046 | [12] -0.127 | [13] -0.015 | [14] 0.009 | [15] 0.157 | [16] 0.112 | [17] 0.078 | [18] 0.079 | [19] 0.166 | [20] 0.013

UBE2M (UniProt P61081)
inactive: [1] 0.038 | [2] 0.002 | [3] -0.019 | [4] -0.025 | [5] -0.048 | [6] -0.097 | [7] -0.013 | [8] -0.031 | [9] -0.007 | [10] 0.049 | [11] -0.002 | [12] -0.039 | [13] 0.016 | [14] 0.054 | [15] -0.089 | [16] 0.042 | [17] 0.03 | [18] -0.034 | [19] 0.017 | [20] 0.045

TXNDC9 (UniProt O14530)
inactive: [1] -0.009 | [2] -0.019 | [3] -0.009 | [4] 0.039 | [5] -0.04 | [6] -0.042 | [7] 0.004 | [8] 0.012 | [9] 0.002 | [10] -0.039 | [11] 0.038 | [12] -0.008 | [13] 0.009 | [14] 0.009 | [15] -0.006 | [16] -0.031 | [17] -0.007 | [18] -0.025 | [19] -0.002 | [20] 0.001

UBE2N (UniProt P61088)
inactive: [1] 0.003 | [2] -0.014 | [3] 0.005 | [4] -0.047 | [5] -0.035 | [6] -0.024 | [7] -0.103 | [8] -0.056 | [9] 0.112 | [10] 0.102 | [11] 0.042 | [12] -0.052 | [13] 0.119 | [14] 0.035 | [15] -0.067 | [16] 0 | [17] -0.022 | [18] -0.053 | [19] -0.018 | [20] 0.037

UBE2O (UniProt Q9C0C9)
inactive: [1] 0.019 | [2] 0.007 | [3] 0.005 | [4] 0.088 | [5] -0.093 | [6] 0.031 | [7] -0.035 | [8] 0.002 | [9] 0.01 | [10] 0.042 | [11] 0.004 | [12] -0.013 | [13] 0.007 | [14] -0.021 | [15] 0.231 | [16] -0.031 | [17] 0.018 | [18] 0.027 | [19] 0.139 | [20] 0.03
